Measurements reported in PubChem BioAssay AID720505 (Drosophila RNAi Screening Center, 2013).
The screen tested about 20,000 reagents; below is a random part of those with a known target gene and a result. In the full data, about 2,100 (10%) are marked active. 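Raw plate signals without normalisation; calls rest on control-based scores that were not deposited; replicate 2 separates called from uncalled poorly.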 A number with no mark means an inactive call. Names joined by + are all predicted targets of the reagent. Not stated in the record: the amount of reagent, the time to read-out.

Aim: 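Genes needed for store-operated calcium entry in fly cells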 (primary screen)
Cell system: Drosophila S2R+ cells
Reagents: long dsRNA against Drosophila genes
Conditions: thapsigargin (2 µM) in calcium-free buffer to empty internal stores, then 2 mM calcium added back
Measurement: 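Fluo-4 signal in 384-well plates read on a FLIPR after thapsigargin (2 µM, calcium-free) store depletion and 2 mM calcium add-back; unnormalised mean endpoint per well; screen run twice, selected wells retested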
Direction: calcium signal and retest calcium signal: higher = more calcium entry after store depletion
Hit rule: 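About 1500 genes called as lowering calcium entry, by varying amounts, judged against per-plate control wells with STIM1 as positive and Rho1 as negative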
Meaning of the calls: active = called as lowering calcium entry; inactive = not called

| calcium signal, replicate 1 | calcium signal, replicate 2 | retest calcium signal, replicate 1 | retest calcium signal, replicate 2 | target | amplicon |
| --- | --- | --- | --- | --- | --- |
| 125 | 96.7 | – | – | hts | DRSC05791 |
| 72.3 | 165 | – | – | nvd | DRSC22139 |
| 98 | 124 | – | – | CG31204 | DRSC15106 |
| 172 | 261 | – | – | Mps1 | DRSC16273 |
| 122 | 103 | – | – | Tace | DRSC16340 |
| 145 | 173 | – | – | CG44014 + CG44013 | DRSC14995 |
| 88.4 | 93.1 | – | – | DppIII | DRSC16241 |
| 87 | 106 | – | – | RpS25 | DRSC16837 |
| 222 | 84.4 | – | – | asRNA:CR42547 + CG15674 | DRSC04264 |
| 121 | 137 | – | – | Col4a1 | DRSC03291 |
| 189 | 74.8 | – | – | CG7222 | DRSC07019 |
| 68 (active) | 165 | – | – | CG1801 | DRSC20556 |
| 129 | 184 | – | – | CG33346 | DRSC22898 |
| 80.4 | 105 | – | – | PPYR1 | DRSC19612 |
| 69.1 | 131 | – | – | CG7692 | DRSC10902 |
| 103 | 125 | – | – | NimC1 | DRSC01879 |
| 91.9 | 176 | – | – | Ccp84Aa | DRSC12586 |
| 85.5 | 94.3 | – | – | BORCS6 | DRSC08514 |
| 137 | 155 | – | – | CG8788 | DRSC07267 |
| 135 | 115 | – | – | hec | DRSC19895 |
| 288 | 79.1 | – | – | Ir7b | DRSC18009 |
| 220 | 119 | – | – | CG34377 | DRSC14708 |
| 218 | 118 | – | – | CG34377 | DRSC14709 |
| 237 | 157 | – | – | CG34377 | DRSC14710 |
| 201 | 142 | – | – | CG34377 | DRSC14711 |
| 141 | 96.9 | – | – | DCTN3-p24 | DRSC04592 |
| 109 | 147 | 7515 | 170 | CG13001 | DRSC19520 |
| 147 | 186 | – | – | CG13001 | DRSC22443 |
| 98.9 | 160 | – | – | Syngr | DRSC06003 |
| 278 | 130 | – | – | CG13622 | DRSC14624 |
| 200 | 167 | – | – | yata | DRSC15408 |
| 107 | 86.3 | – | – | mRpS31 | DRSC10556 |
| 145 | 119 | – | – | RagC-D | DRSC07239 |
| 153 | 127 | – | – | dpr4 | DRSC14531 |
| 187 | 108 | – | – | dpr4 | DRSC14929 |
| 75.5 | 4443 | 7412 | 122 | CG8677 + CG31626 | DRSC01838 |
| 99.6 | 146 | – | – | CG8461 | DRSC16424 |
| 97.9 | 91.4 | – | – | CG4849 | DRSC15662 |
| 114 | 129 | – | – | CG31915 | DRSC03000 |
| 93.5 | 174 | – | – | CG31463 | DRSC14346 |
| 84.2 | 112 | – | – | lin | DRSC07644 |

Part of the list above, limited to “calcium signal, replicate 2”:
CG8677 + CG31626 [DRSC01838]: 4443
CG8461 [DRSC16424]: 146
CG4849 [DRSC15662]: 91.4
CG31915 [DRSC03000]: 129
CG31463 [DRSC14346]: 174
lin [DRSC07644]: 112

Continued.
| calcium signal, replicate 1 | calcium signal, replicate 2 | retest calcium signal, replicate 1 | retest calcium signal, replicate 2 | target | amplicon |
| --- | --- | --- | --- | --- | --- |
| 110 | 179 | – | – | Mp20 | DRSC07474 |
| 181 | 93.2 | – | – | snama | DRSC04049 |
| 103 | 153 | – | – | Mst87F | DRSC16747 |
| 98.2 | 124 | – | – | CG9839 | DRSC16574 |
| 154 | 151 | – | – | BomBc3 | DRSC15873 |
| 92.9 | 142 | – | – | Apoltp | DRSC02508 |
| 101 | 105 | – | – | CG10333 | DRSC02036 |
| 142 | 107 | – | – | Vml | DRSC18529 |
| 153 | 143 | – | – | Cpr97Eb | DRSC15123 |
| 94.5 | 80.1 | – | – | CG43121 | DRSC10457 |
| 121 | 165 | – | – | Arl4 | DRSC17156 |
| 149 | 158 | – | – | Qsox3 | DRSC16096 |
| 114 | 278 | – | – | RabX4 | DRSC22189 |
| 156 | 111 | – | – | CG15894 | DRSC18098 |
| 57.6 (active) | 143 | – | – | CG15894 | DRSC18099 |
| 129 | 122 | – | – | Tbcc | DRSC00223 |
| 67.2 (active) | 99.3 | – | – | Erk7 | DRSC18127 |
| 83.2 | 116 | – | – | Erk7 | DRSC18227 |
| 123 | 250 | – | – | Erk7 | DRSC21895 |
| 155 | 177 | – | – | bin3 | DRSC04919 |
| 71.6 | 109 | – | – | Wdfy2 | DRSC02822 |
| 137 | 121 | – | – | CG15256 | DRSC01491 |
| 167 | 156 | – | – | CG15256 | DRSC01940 |
| 62.2 (active) | 98.3 | – | – | CG11162 | DRSC19391 |
| 94.5 | 123 | – | – | CG11162 | DRSC22538 |
| 98.1 | 169 | – | – | br | DRSC17789 |
| 107 | 137 | 102 | 80.6 | br | DRSC18743 |
| 75.6 | 155 | – | – | br | DRSC18744 |
| 113 | 80 | – | – | slif | DRSC11635 |
| 78.8 | 98.2 | – | – | mxc | DRSC17819 |
| 124 | 129 | – | – | Chmp1 | DRSC10401 |
| 97.6 | 116 | – | – | CG15432 | DRSC00447 |
| 114 | 95.9 | – | – | CenG1A | DRSC02538 |
| 105 | 115 | – | – | CenG1A | DRSC03505 |
| 80.5 (active) | 115 | – | – | CenG1A | DRSC03506 |
| 125 | 135 | – | – | T3dh + pgc | DRSC04659 |
| 95.4 | 228 | – | – | CG12310 | DRSC09878 |
| 120 | 165 | – | – | Kdm2 | DRSC14286 |
| 154 | 179 | – | – | Mal-A3 | DRSC07462 |
| 80.1 | 189 | – | – | Marc | DRSC06614 |
| 151 | 125 | – | – | CG5966 | DRSC18394 |
| 128 | 106 | – | – | unc80 | DRSC15329 |
